# Laboratory results reported in PubChem BioAssay AID1347423 (Functional Genomics Laboratory (NCATS/FGL), 2020).
# About 210 (0.4%) of roughly 52,000 sequences were called active.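 How the source made its calls: active means gene whose silencing raises cell survival under the drug, median off-target-corrected z-score across its silencing RNAs 2 or more; inactive means the rest.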 Some of the results follow.
# Assay: Resistance to Poly (ADP-Ribose) Polymerase inhibitor: Gene Identification via Genome-wide siRNA Screen
# Settings: mouse BRCA2 R2336H ES cells, olaparib, CellTiter-Glo viability; active compounds read high
# Procedure, shortened: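 Genome-wide siRNA screen (3 siRNAs/gene, 20 nM) in mouse ES cells carrying hypomorphic BRCA2 R2336H; olaparib 500 nM added 48 h post-transfection, CellTiter-Glo viability 72 h later. Normalized to plate-median negative control; MAD z-scores, gene median, seed-adjusted.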
row,Sequence,z-score
1,GCUCACACAGGGAACAUUGTT against Butr1,inactive: -1.5
2,CCUGAGACAUACUUAAUGUTT against Anapc10,inactive: 0.877
3,GGAUCUUUGCUACAAAAACTT against Fhl5,inactive: 0.13
4,CCACCCUUGGUAAAAAUGUTT against Olfr1006,inactive: -1.87
5,GGUAAUGUGGAACACAGCATT against Gsr,inactive: 1.11
6,GGAUCAGAGAACAGAGUCUTT against Alms1,inactive: -1.14
7,CGAUACGGAUGUUUUCUCUTT against 6720430O15,inactive: -0.421
8,GCUUAAAUGUUCUCUGUUCTT against E230012M21,inactive: 0.0386
9,GCCAUGAUGACUAACCUUATT against Dbpht2,inactive: -1.13
10,GGUCACUCCGAUGUUAUUUTT against G6pc,inactive: -0.0399
11,CCGUAAUCUGGUUGGAUUUTT against 4931419P11Rik,inactive: 1.42
12,GGUUAAGAGCUCUACAAAUTT against 4921513O04,inactive: 0.817
13,GGAAAAGCUUUUGUUCCCATT against Tfb1m,inactive: 0.934
14,GGAAAAGGUAGGGACCUAUTT against Tce4,inactive: 0.876
15,GACCACACUCAUCCAGGCUTT against Pgbpll,inactive: 2.74
16,GGUAACUCUCCUUAGCCAGTT against Klk10,inactive: 2.07
17,CCUGAGACUGCAUCUUUUCTT against 2410193C02Rik,inactive: 0.921
18,GGAAGAAGACAUGCUCACUTT against Pcdhb8,inactive: 1.35
19,GGACGGCAAAUUUGGUUUCTT against Mmp9,inactive: 3.19
20,GGUGCUACUCCAGAUUGACTT against Tbc1d13,inactive: 1.89
21,CCAAAUUCAUCAGAUCUUCTT against Olfr424,inactive: 0.000965
22,GCCACUACAUAAAAUAGUCTT against D11Moh35,inactive: -0.529
23,CCUGUGGUGCAAACGGUUGTT against Osm,inactive: -0.513
24,GGAUGUGGAGCAAGUGAAGTT against Stx1b2,inactive: -0.267
25,GGAAAACCAGCACAAUUUATT against Igsf4a,inactive: -0.365
26,CCUGAGAUUGGCAAUAUAGTT against G430022H21Rik,inactive: 0.0993

row,Sequence,z-score
1,GGCAUUCAGAUGACAAUGGTT against C1galt1,inactive: 1.33
2,GCAUACAAGACCGUGAUCATT against Psmc4,inactive: -3.1
3,CGAGUUGAAAUGUUGGCAATT against AV071179,inactive: -0.608
4,GGAUCAGCUGUUGCCAGAGTT against C130073D16Rik,inactive: -1.48
5,CCACUCUUACCAAGAAGAGTT against Mog,inactive: -0.111
6,GGAGAUUGAAGAGCUCCGATT against Cabp1,inactive: -0.563
7,CGAAAAGGCAAAGUAUGAATT against 1700001F22Rik,inactive: -0.319
8,GGAGCAAAUCUUCUGUGUATT against Cdc42ep1,inactive: -1.25
9,GCAUCUCAAGACGAUGGAUTT against Akap8l,inactive: 0.941
10,GGUAUUCCCUAUGCUUCUCTT against Gpm6a,inactive: -0.0423
11,GCUUUAAAACAUAUGCCUGTT against Mip,inactive: 0.818
12,GCCAUUUCUUACACCUAUATT against Olfr484,inactive: -1.36
13,GGUCUUCCUUUUGGUCUUCTT against Olfr1240,inactive: 0.515
14,GGCACAGCGGGUGAUCAAATT against 1810019A08Rik,inactive: -0.828
15,GCACCUCUCCCUACGAUUATT against Cxcr3,inactive: 1.01
16,GGCUUUGAUUAUGUUCCCATT against Fcer2a,inactive: 2
17,GCUACCAUGCCCUAUGUAGTT against Slc6a3,inactive: -0.289
18,GAUGUGUUAACUACACCGATT against Pyy,inactive: 0.521
19,GGAGGAACCUGAAGAUCUGTT against Bcl2l11,inactive: -0.922
20,CCAUAACAGACCAGAUUCGTT against Gtf2h4,inactive: 0.567
21,CCCAGAGAUAAAGACGGGCTT against B4galt1,inactive: 0.28
22,GGGCUUUAUACCCUACGAATT against Ceacam13,inactive: -0.00689
23,GGAGUCUGAUCAAUGGAAUTT against Hsd17b13,inactive: 0.502
24,GGAGAGAGUGACCUUAAAUTT against Olfr818,inactive: -0.0207
25,GGCCUCUGAGGACAAGUUUTT against BC022645,inactive: -0.77
26,GAGAGAGAGAGAAAAUCUGTT against Klra1,inactive: -0.426

# A few values from the entries so far:
# GGAGGAACCUGAAGAUCUGTT against Bcl2l11 | z-score: inactive: -0.922
# GGAGCAAAUCUUCUGUGUATT against Cdc42ep1 | z-score: inactive: -1.25
# GGAUCAGCUGUUGCCAGAGTT against C130073D16Rik | z-score: inactive: -1.48
# CGAAAAGGCAAAGUAUGAATT against 1700001F22Rik | z-score: inactive: -0.319
# GGCCUCUGAGGACAAGUUUTT against BC022645 | z-score: inactive: -0.77

# Following part

row,Sequence,z-score
1,GCCGAGUUUACUUGUUUGATT against 4932702D22Rik,inactive: 0.874
2,GGUGAAUUGAAGCAGUCCUTT against Gpr44,inactive: 0.0213
3,GGAAAAUUGGACCAAUUUCTT against E130307J04Rik,inactive: 0.528
4,CCUUUAGAGUUUGAUCUGCTT against Cebpg,inactive: 0.389
5,GGUGUAUGCGUCACUAGAATT against Rxra,inactive: -1.74
6,GGAAAAGGAAAAGAAGAAGTT against Brd3,inactive: -0.345
7,GCUGUGUGCCACUUUAUGUTT against Ebna1bp2,inactive: -0.0364
8,GGGAUACCUCAUUUUUUCUTT against Olfr107,inactive: -0.338
9,GGAGAAAACCAUCUUGGUUTT against Olfr284,inactive: 0.188
10,GGCACAGAAGAAUGAGAGATT against Schip1,inactive: -0.617
11,CCGUCCUGCAUCGGAUUUATT against Ppp2r5a,inactive: -0.0072
12,GGUCCGAGAACAUCAUCGATT against C77032,inactive: -1.1
13,GCAAGUCCGGAUGUAAGGATT against A530001H01Rik,inactive: -3.16
14,GGCCUUUGCAUGCAAUAGUTT against BC031441,inactive: 0.737
15,CCUACGCAGCAUGUGUGAATT against Exosc4,inactive: -0.551
16,GGAAGUGGCUGUUGCUUCUTT against 9230106L18Rik,inactive: -0.403
17,GGUCUCAGAGCUACAUCCCTT against Plekha2,inactive: 1.26
18,CCAAAGACAUCUCACACAGTT against Tgfb1,inactive: -1.34
19,GGGCCUGUACAUCUUCCAATT against Anpep,inactive: 0.48
20,CCUCUAUGGUCUGCCUCAUTT against Spint2,inactive: 1
21,GGAAUUUGGAAAGAUCUAUTT against B930018B01,inactive: -0.496
22,GCAUCUCAGGGAUUUAGAUTT against Axot,inactive: -1.64
23,GCUCUGUUCUCCAAACUGCTT against Pyy,inactive: -0.77
24,GGAAGAAAUAGAUGAGAAUTT against Tnmd,inactive: 0.737
25,GCCGGAUAGACCAAUUGGATT against Nlk,inactive: -0.386
26,GCAUGUUUUCCACAUGUCCTT against V1rb10,inactive: 1.45

# Some of the entries so far, as tab-separated lines:
row	Sequence	z-score
10	GGUAUUCCCUAUGCUUCUCTT against Gpm6a	inactive: -0.0423
11	GCUUUAAAACAUAUGCCUGTT against Mip	inactive: 0.818
12	GCCAUUUCUUACACCUAUATT against Olfr484	inactive: -1.36

# Continued.

row,Sequence,z-score
1,GGUAUCCUCUUUUUUAACCTT against Exosc9,inactive: -0.213
2,GGUGGAUAAAGCUUAAAUATT against V1rg10,inactive: -0.066
3,GGAUCUUGAUCUUAGGACATT against D17H6S56E-3,inactive: -1.52
4,GUAUUUCCAGUAUUACUUGTT against AI467606,inactive: -0.296
5,GGACGUACUCCGGAGCUUUTT against Mal2,inactive: -0.509
6,GCCAUGAUUAUUUACCGUGTT against 4921513O20Rik,inactive: 0.194
7,GCAAGACUGAGAGAAUUGGTT against Pi16,inactive: 1.15
8,CGAACGUGCCAACUUACUATT against Gpd2,inactive: 0.42
9,GGUUACCAACCUUCUCAUGTT against Ptbp1,inactive: -0.0343
10,GCAAUAAGUCUCGGGAACATT against 5330427M13Rik,inactive: 0.978
11,GGCCUUGAAAGCCAUUGGUTT against Kmo,inactive: -2.14
12,GGAUUACGAAAAUCAUGGUTT against Polr3e,inactive: 0.641
13,GCGUGAGAAGAGCAUUGAGTT against D030060O14Rik,inactive: -1.91
14,GGUAAAAGAGGCAAUUACGTT against Olfr1497,inactive: 0.221
15,GGGAUUGAACAGUUAUGUATT against Rpo2tc1,inactive: -1.23
16,GCUUUCAGGGAAACUUGCCTT against Ky,inactive: 1.02
17,GCCAGUCAUGCCUAUUUUCTT against 9330177P20Rik,inactive: -2.09
18,GGAAGUUGUACGGACAGACTT against Nr4a1,inactive: -0.534
19,GGAUUCUGAACCUUACAGATT against Hoxd9,inactive: 0.419
20,GGACAAUUAACGAUCCCACTT against Pdxp,inactive: 0.23
21,GACUGCUUCCUUCUGACUGTT against Olfr399,inactive: 1.45
22,GGCGGAGGAAAUUUCUGGATT against Creb5,inactive: 0.369
23,GGAUCCUAACUAUAUUCUCTT against Pdyn,inactive: 0.318
24,CGUGAAGAUCGAACAGGACTT against Wfs1,inactive: 0.932
25,GGUUAAGACUCACGACCUGTT against 1700092C17Rik,inactive: 1.39
26,GGACCACAUUCCCUUUUUUTT against A130038L21Rik,inactive: -0.792
